Test results as given in PubChem BioAssay AID1487 (National Center for Advancing Translational Sciences (NCATS), 2009).
Some of the results follow. Further columns of the screen follow, without active or inactive calls. Most of these compounds were active or inconclusive in the main read-out, so they are no random draw. The note in brackets gives the kind of curve behind each potency; many fits are weak.

Assay: qHTS Assay for Modulators of Lamin A Splicing
Details: HeLa LMNA splicing GFP/RFP minigene ratio, 48 h
In short: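 Read-out is the ratio of GFP to DsRed2 object intensity, acquired by 488 nm laser-scanning cytometry on HeLa lamin A-EGFP minigene reporter cells. Compound incubation 48 hrs at 37 °C in Opti-MEM with 2% FBS; DMSO 0.5% final.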

[1] = measured here: GFP splicing reporter channel
[2] = measured here: RFP viability control channel

Structure (SMILES)	AC50 [1]	AC50 [2]
Cc1ccc2nc(N3CCN(Cc4ccc(F)cc4)C3=O)c(C)cc2c1	7.94 µM [rising, partial curve, poor fit]	14.1 µM [rising, partial curve]
Cc1ccccc1-c1ccc2ncnc(N3CCN(C)CC3)c2c1	3.16 µM [falling, partial curve, poor fit]	3.98 µM [falling, partial curve, poor fit]
COC(=O)c1c(NC(=O)CN2CCN(Cc3ccc4c(c3)OCO4)CC2)sc(C)c1C	11.2 µM [rising, single point]	
O=c1c2cn[nH]c2nc(SCc2cccc(Br)c2)n1-c1ccc(Cl)cc1	35.5 µM [falling, partial curve, poor fit]	
O=C(OCC(=O)c1cccs1)c1ccc([N+](=O)[O-])o1		0.891 µM [falling, full curve, poor fit]
C[C@H]1CS(=O)(=O)CCN1/N=C\c1ccc([N+](=O)[O-])o1	0.00316 µM [falling, full curve]	0.00316 µM [falling, full curve]
Cc1cccc(C)c1NS(=O)(=O)c1ccc(F)cc1	35.5 µM [rising, partial curve]	
CCN1CCN(c2cc3c(cc2F)c(=O)c(S(=O)(=O)c2ccc(OC)cc2)cn3CC)CC1	0.0891 µM [falling, partial curve]	
CSc1nc(SCC(N)=O)c2c3c(sc2n1)CN(C)CC3	17.8 µM [rising, single point]	15.8 µM [rising, single point]
COc1cc2nc(/C=C/c3cc(OC)c(OC)c(OC)c3)sc2cc1SC	35.5 µM [falling, single point]	4.47 µM [rising, single point]
O=Cc1cn(CC(=O)N2CCCc3ccccc32)c2ccccc12		31.6 µM [rising, single point]
CCOc1cc(CNCCSc2nnnn2C)cc(Br)c1OCc1ccccc1		20 µM [rising, single point]
O=C(CSc1nnc(-c2ccncc2)o1)N1CCc2ccccc2C1		2.24 µM [rising, single point]
CCC(C)C(=O)Nc1nc2ccc(S(C)(=O)=O)cc2s1 (configuration not stated)	10 µM [falling, partial curve, poor fit]	
CCN1CCN(c2oc(-c3ccc(COc4ccc(C)cc4)o3)nc2C#N)CC1	10 µM [falling, partial curve, poor fit]	
CCOC(=O)Cc1csc(NC(=O)Nc2cccc(Cl)c2)n1	15.8 µM [rising, single point]	35.5 µM [rising, single point]
Cc1ccc(NC(=O)c2cc(S(=O)(=O)NCCc3ccccc3)ccc2F)cc1Cl	35.5 µM [falling, single point]	22.4 µM [falling, single point]
O=C(c1ccc2c(=O)n(-c3ccccc3)c(=O)[nH]c2c1)N1CCCCC1		31.6 µM [rising, single point]
CCN1C(=O)/C(=C/N(C(C)=O)c2ccccc2)N(c2ccccc2)C1=S		31.6 µM [rising, single point]

Structure (SMILES)	AC50 [1]	AC50 [2]
CCOC(=O)N1CCN(C(=O)CSc2cc(C)nc3c(-c4ccccc4OC)c(C)nn23)CC1		8.91 µM [rising, partial curve, poor fit]
Oc1ccc(/C=C/c2ccc3ccccc3n2)cc1	20 µM [falling, partial curve, poor fit]	
Cc1cccc(N2CCN(C(=O)Cc3c(C(=O)O)[nH]c4ccc(Cl)cc34)CC2)c1C		17.8 µM [rising, single point]
Cc1ccc(-c2cc(C(=O)N/N=C/c3c(C)nn(-c4ccccc4)c3C)n[nH]2)s1	22.4 µM [falling, partial curve]	
O=C(/C(=N\Nc1ccc([N+](=O)[O-])cc1)Sc1nnnn1-c1ccccc1)c1ccccc1		7.08 µM [rising, partial curve]
CCC(=O)N1CCCc2cc(S(=O)(=O)N3CCN(c4ccccn4)CC3)ccc21		14.1 µM [rising, single point]
O=C(NCc1ccco1)c1ccc(Cn2c(=S)[nH]c3ccccc3c2=O)cc1		14.1 µM [falling, single point]
O=C(CSc1ccccc1)Nc1ccccc1C(=O)O		35.5 µM [rising, single point]
CC(C)c1onc(C(=O)NCc2cccs2)c1[N+](=O)[O-]	1.12 µM [rising, partial curve]	
CCOc1ccccc1CNC(=O)c1cc2n(n1)CCCN(Cc1ccc(C)cc1)C2=O	35.5 µM [falling, single point]	35.5 µM [falling, single point]
COc1ccccc1-c1cc(SC)c(C#N)c(=O)o1		31.6 µM [rising, single point]
NC(=O)Cc1nc2scc(-c3ccc(Cl)cc3)c2c(=O)[nH]1	1.26 µM [rising, partial curve]	
COC(=O)c1ccccc1NC(=O)c1ccc2nccnc2c1		4.47 µM [rising, single point]
Cc1ccc(-n2c(C)cc(/C=N/NC(=O)CC3(C)OCCO3)c2C)c(C)c1		25.1 µM [rising, single point]
O=C(Nc1ccc(OC(F)(F)F)cc1)c1nc2ccccc2nc1N1CCCCC1	35.5 µM [falling, single point]	35.5 µM [falling, single point]
C/C(=N\NC(=O)C1(C)CC1(Br)Br)c1cccc(NC(=O)C2CCC2)c1 (configuration not stated)		0.251 µM [rising, partial curve]
O=S(=O)(Nc1ccc2nc(-c3ccco3)[nH]c2c1)c1ccccc1		14.1 µM [rising, single point]
COC(=O)Cc1ccc(Oc2ncc(C(F)(F)F)cc2Cl)cc1	3.98 µM [falling, partial curve, poor fit]	6.31 µM [falling, partial curve, poor fit]

Full records, looked up by structure:
CC(C)c1onc(C(=O)NCc2cccs2)c1[N+](=O)[O-] is listed with AC50 [1]: 1.12 µM [rising, partial curve]
O=C(/C(=N\Nc1ccc([N+](=O)[O-])cc1)Sc1nnnn1-c1ccccc1)c1ccccc1 is listed with AC50 [2]: 7.08 µM [rising, partial curve]
